The source of these data is PubChem BioAssay AID1347423 (Functional Genomics Laboratory (NCATS/FGL), 2020).

About 210 (0.4%) of roughly 52,000 sequences were called active.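 How the source made its calls: active means gene whose silencing raises cell survival under the drug, median off-target-corrected z-score across its silencing RNAs 2 or more; inactive means the rest.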 Some of the results follow.

The test can be described thus: Resistance to Poly (ADP-Ribose) Polymerase inhibitor: Gene Identification via Genome-wide siRNA Screen. Particulars: mouse BRCA2 R2336H ES cells, olaparib, CellTiter-Glo viability; active compounds read high. A digest of the protocol:
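Mouse BRCA2 R2336H ES cells were reverse-transfected with siRNA (20 nM final), treated at 48 h with 500 nM olaparib, and read by CellTiter-Glo after 72 h. Scores: MAD-based z per siRNA, median per gene, seed off-target correction.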
Consider GCGAAUUGGAACAGCUGACTT against Sh3glb1, for which the z-score is inactive: 1.09.

On to “CCAGAUUAACUACAAAUCCTT against B430203M17Rik”, for which the z-score was inactive: 0.188.

Take CCCUGUUGAAGAGACGAGATT against BC028768: the z-score is inactive: 0.272.

As to “GGAAGACACUUAAAAAUUCTT against 1200013A08Rik”, the z-score was inactive: 0.131.

As for GGAGACAUCAUCUGAAUAUTT against Hnmt, the z-score was inactive: -0.102.

In the case of GGGCUAGGUAGUGAUGGUCTT against Snrp70, the z-score was inactive: -2.33.

Consider “GCCCAUGGGUACAUGCAAUTT against 1810065E05Rik”, for which the z-score is inactive: -0.214.

On to GGAGAACAAGGUGACUUGGTT against Irx1, for which the z-score is inactive: 0.945.

As to GGUGUAUAAUAUGAGAUAGTT against Rdx, the z-score is inactive: 0.749.

Turning to GCAACACCUUAUGUUUCAUTT against Cab39, the z-score was inactive: 0.491.

With CCACCAUGCAACCUCCUGATT against Acsl6, the z-score is inactive: -2.42.

With CCUGUACCUGCGUAUUCAATT against Grap, the z-score is inactive: 1.97.

In the case of GGUGGUGGCAAAUAAAAUUTT against Smr2, the z-score is inactive: -0.171.

Turning to GGGACCCUGAGAAAAGACATT against Tln1, the z-score was inactive: -2.21.

GGAUUAUGGGAAUUAACUATT against Mpdz: the z-score is inactive: 2.13.

For the sequence GGAAGCAUCUCAUUAUUCATT against Lamp2, the z-score was inactive: 0.333.

For the sequence GGUAACUUCCCAGGAGGGATT against Bcl9, the z-score was inactive: 0.0202.

Consider GGAUAUGGAUUCUCCCGAUTT against Krtap8-2, for which the z-score was inactive: 1.79.

CGACUGCUUAAUGAUUCCCTT against Pfdn4: the z-score is inactive: -1.28.

With GGUGCAGUCUUAGGGAGGUTT against Rps6kb1, the z-score is inactive: -1.53.

Consider GGCUAUACUGUCAAUGUAUTT against Nsdhl, for which the z-score was inactive: 0.34.

“GCAAUUGAAGCAAUUGACUTT against 2600013N14Rik”: the z-score is inactive: 0.537.

“GGAUGUCAGAAAACAGUGCTT against 1110055L24Rik”: the z-score is inactive: 0.505.

As for GGUGGAUUGUCACACGAGUTT against Prkr, the z-score is inactive: -0.725.

As for GAGCAUUGUCUACCUGGAATT against V1rh3, the z-score was inactive: -0.57.

With GGGAGUUUCUUAUUCACACTT against Lgi1, the z-score is inactive: 0.16.

GGGAGAGACAGAAAGCUUUTT against Olfr213: the z-score was inactive: -0.706.

Take CCCACUGCCAAGUACAAUGTT against Dmwd: the z-score is inactive: 0.541.

For “GGCAUCUGUUACCCAGAAUTT against C130073D16Rik”, the z-score was inactive: -0.519.

Consider “GGGUAUUUAUCUGAAGCCCTT against 0610009M14Rik”, for which the z-score is inactive: -0.302.

Take GGUGCUGACUGACAAAGAATT against Tnfaip1: the z-score is inactive: 0.987.

For “GGAUCUCCAGAAAGACUUUTT against 1700012P16Rik”, the z-score was inactive: -2.05.

Take CCAAGAGACCUUUGGACGATT against Tgfbrap1: the z-score is inactive: -2.4.

In the case of CCGUUCACAUGCAUCACUGTT against Olfr1378, the z-score is inactive: -1.4.

“CCUAGAUUGAAAAUUGUCATT against 1700049G17Rik”: the z-score is inactive: -0.329.

With CCGACAUUUUCGUCACCAGTT against Gabra1, the z-score was inactive: -1.71.

Turning to GGAUGGGAAGACUACCCGATT against Camta2, the z-score is inactive: 0.093.

For the sequence GCCUAAACAAGCCGAUGUGTT against Gap43, the z-score was inactive: -0.706.

Regarding GGGACAUGUUUUGAUAAAGTT against Yy1, the z-score was inactive: -0.737.

In the case of GGAAAUGAAGCUAGUUUAATT against Usp38, the z-score was inactive: 2.81.

With CGCGAUUCUGGAUGAGAACTT against Cacnb3, the z-score was inactive: 0.038.

In the case of GGCACGUCUGGACAACAUCTT against Cd22, the z-score was inactive: -0.993.

As to GGCAAAUCCCGUUUCCAGATT against Hspb3, the z-score was inactive: 0.624.

As for CCGUAAGGAUGAAGAGAUATT against Casp8ap2, the z-score was inactive: -2.3.

On to GGAUGUGUCAGAAAAGUUATT against Lars2, for which the z-score is inactive: -0.535.

For the sequence “GGAAAUACGACAACAGCCATT against 2700097O09Rik”, the z-score was inactive: -1.72.

GAGCUUUUCGCCAGAAGUGTT against Tcstv3: the z-score is inactive: -0.18.

Consider “GGCUUCAUUUCCUAUAAUGTT against 3321401G04Rik”, for which the z-score is inactive: 0.165.

Consider GCCAAAUGCGUUAUCAAUGTT against Gpd2, for which the z-score was inactive: -0.0952.

As for CCUCAUCGAUGCACUACCCTT against Lrfn4, the z-score was inactive: 0.324.

Turning to GGUAAGGGUAAAGAUUCUUTT against Pgk2, the z-score is inactive: 0.349.

Consider CCGACUUGAGGUUUCAAAGTT against H3f3b, for which the z-score is inactive: 0.775.

As for “GACAGGCGGCCUUCCGAGATT against 6430559E15Rik”, the z-score was inactive: 0.861.

Turning to CCUGAAGAAAGAAUCCCUATT against Og2x, the z-score was inactive: -0.802.

Turning to “GCAGCUGGAUGCUACUAACTT against 4631423F02Rik”, the z-score was inactive: -0.245.

Consider GCAAGAAAAGGUGCUAUCUTT against Vdrip, for which the z-score is inactive: 0.767.

As to “GCGAUUGUGCUUUUGAGCCTT against 5730590C14Rik”, the z-score is inactive: 1.21.

As to GGCAAAAAGACUUUGAUAUTT against Dnajc1, the z-score is inactive: 0.675.

Consider “GCAUCAGUAGAAACCCACATT against 1700001D09Rik”, for which the z-score was inactive: 1.63.

GGGAGACAACCAAAGUGAATT against Cngb3: the z-score was inactive: -1.44.

Take GGCCUUCAAUCACCUAGAGTT against Pde6g: the z-score was active: 2.23.

In the case of CCACGGUUUCAUUUACUAATT against Tm7sf3, the z-score was inactive: -0.188.

For CCACAUGAUGUAAAACUUATT against P4ha1, the z-score was inactive: 0.474.

Consider GGAGGUAGGAAAGUGGAUCTT against Gdi1, for which the z-score is inactive: -0.316.

As to GGAUUUAUUAGCCUACCUUTT against Catna2, the z-score is inactive: -0.436.

CCCAUGGAUUGGCAAGUUGTT against Sat1: the z-score was inactive: -0.305.

With “GGUACUGUGUUCUGUCUGCTT against B230325K18Rik”, the z-score is inactive: 0.675.

Regarding ACAGGCAAGAUGAGAGCGATT against Cutl1, the z-score was inactive: -1.34.

For “GGCCUUCACUAAGAGACGATT against C130073F10Rik”, the z-score was inactive: 0.0405.

Consider CCAUUAUGAGUGUGUUAAATT against Npc1, for which the z-score was inactive: -0.947.

Take “GGAUGAAGAAGAUGAAGAUTT against D030028O16Rik”: the z-score was inactive: -3.25.

In the case of “CCGACAUCCUUGAUACGUUTT against 9030624J02Rik”, the z-score was inactive: 0.646.

With GUUGUGGUAUCUUGGGCAGTT against Olfr1217, the z-score was inactive: -0.478.

Consider GGAUUAUUACAUCGAGCUUTT against Idi1, for which the z-score is inactive: -0.934.

With GGCGACCACUUUGUCUACATT against BC030417, the z-score was inactive: 0.283.

GGCCAUGGAGAACAUAUGCTT against Trpm8: the z-score is inactive: 0.103.

For the sequence GGAGUGUGUGCUGUCAGAATT against Nr1h3, the z-score is inactive: 0.225.

GGAGAGAUCAUACACUUUGTT against LOC210321: the z-score is inactive: -0.255.

Take GCUAUACGCUCAAGCUAAATT against Fbxl8: the z-score is inactive: 3.3.

On to GGAUCUUUGAUAGUUGAGATT against Hspd1, for which the z-score is inactive: -0.876.

GCUUACUUUGGAACACAAATT against Tex18: the z-score was inactive: 0.719.

Turning to “GGUGGACAAGCAAGUCUAGTT against B230113M03Rik”, the z-score is inactive: -2.14.

Regarding “GGAUUUGCAAAGCCCAGUCTT against 6720457D02Rik”, the z-score is inactive: 1.92.

As to GUGAGAACAAACAGAUAAUTT against V1rc21, the z-score is inactive: 0.458.

Regarding “GGGUGUCUUCUUGAACUGGTT against A930010E21Rik”, the z-score was inactive: -0.135.

In the case of “GGAGGAAUACGUAUACUUCTT against B230399E16Rik”, the z-score was inactive: -1.02.

With GCCUAAUGAUUGCAUCCUATT against Flj39647, the z-score was inactive: 1.44.

Regarding GGCCUUCCUUUUCUAUAGATT against Foxd2, the z-score is inactive: 0.312.

As to GACCAGAUUCUUACUUUGGTT against Olfr9, the z-score was inactive: -1.63.

Regarding GGAAAAUCUUAGGAAGAUGTT against Elf4, the z-score was inactive: 1.43.

Take “GGUUGGUACAUUGUGACCUTT against 1110060F11Rik”: the z-score is inactive: 0.407.

Turning to CCAGGAAUAGAUAAACUCUTT against Olfr120, the z-score is inactive: -1.58.

Turning to GCCUUUGUGUUACAAUAUGTT against Plekhc1, the z-score was inactive: -1.17.

As for CCAAAUAGAGAGCCUAAAUTT against Loxl2, the z-score is inactive: -0.68.

On to GCCCGUUACUAUUGUUGAGTT against Incenp, for which the z-score was inactive: -2.31.

On to CCUACCAUACCAUGAGCAGTT against Pou4f3, for which the z-score is inactive: 0.754.

Consider GGAGAGCACCGAUGAAAAUTT against Mcam, for which the z-score is inactive: 0.541.

In the case of “GGUUAGGCACAAAUAAGUUTT against B230206H07Rik”, the z-score was inactive: -0.771.

As to CCAAGAUGCACAGUGAUAATT against Pknox2, the z-score is inactive: -0.434.

As for GGCUCUGAAUAAACUCCUCTT against Olfr1013, the z-score was inactive: -0.531.

GGAAAGCAAAAAAAACUGUTT against Tnfaip8: the z-score was inactive: 0.788.

GGCCUCCUCUCACAAGUAUTT against Tubb3: the z-score was inactive: -0.184.

As for GCAGAUUCGCUGCCUGAUGTT against Snapc4, the z-score was inactive: 0.0254.
